In patent US11384119B2, “Compositions and methods for inhibiting CD279 interactions” (priority 2015, dated 2022):
Not every detail of the peptide structures is certain; ends, links or a residue may be inferred.

System: tumour cell line LL/2
Assay: In vivo LL/2 tumour model in C57Bl/6 mice
Details: 200 mg/kg IP for 7 days from 14 days post-implantation; relative to control and D-TW-Scrambled; FIG. 12
Description: More particularly, mice strain C57Bl/6 (male, 4-weeks, initial body weight˜20-22 g) were inoculated with tumour cell line LL/2, at S.C. 10^5 per mouse. After 14 days post-implantation, the mice were treated with D-TW or D-TW-Scrambled for 7 days (at 200 mg/kg), via intraperitoneal (IP) injection.

CSCC[C@@H](NC(=O)[C@@H](CO)NC(=O)[C@H]1CCCN1C(=O)[C@@H](CO)NC(=O)[C@@H](CC(N)=O)NC(=O)[C@@H](CCC(N)=O)NC(=O)[C@H](N)[C@H](C)O)C(=O)N[C@H](CCCNC(=N)N)C(=O)N[C@H](Cc1ccc(O)cc1)C(=O)N[C@H](Cc1c[nH]c2ccccc12)C(=O)O [D-TW, TQNSPSMRYW]
tumour growth (tumour size): effective to significantly inhibit tumour growth
